Data reported in article PMC6575207.
No constants are given. Whether binding was seen depends on the method and setting. Binding seen in cells or lysates may run through a third protein. Some binding calls cover weakened binding; strength is not graded here.

The chains behind the UniProt entries cited, without tags or fusion partners.
UniProt Q00978: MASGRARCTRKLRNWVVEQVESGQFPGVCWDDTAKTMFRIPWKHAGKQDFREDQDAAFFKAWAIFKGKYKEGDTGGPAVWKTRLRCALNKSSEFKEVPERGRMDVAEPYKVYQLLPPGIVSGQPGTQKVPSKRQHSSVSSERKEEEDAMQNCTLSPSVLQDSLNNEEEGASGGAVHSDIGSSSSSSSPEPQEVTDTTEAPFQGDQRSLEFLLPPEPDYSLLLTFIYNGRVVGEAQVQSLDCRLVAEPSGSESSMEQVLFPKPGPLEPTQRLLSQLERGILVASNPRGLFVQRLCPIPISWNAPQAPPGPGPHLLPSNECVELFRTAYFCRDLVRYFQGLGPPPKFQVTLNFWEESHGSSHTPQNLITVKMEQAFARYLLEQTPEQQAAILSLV
UniProt P56524: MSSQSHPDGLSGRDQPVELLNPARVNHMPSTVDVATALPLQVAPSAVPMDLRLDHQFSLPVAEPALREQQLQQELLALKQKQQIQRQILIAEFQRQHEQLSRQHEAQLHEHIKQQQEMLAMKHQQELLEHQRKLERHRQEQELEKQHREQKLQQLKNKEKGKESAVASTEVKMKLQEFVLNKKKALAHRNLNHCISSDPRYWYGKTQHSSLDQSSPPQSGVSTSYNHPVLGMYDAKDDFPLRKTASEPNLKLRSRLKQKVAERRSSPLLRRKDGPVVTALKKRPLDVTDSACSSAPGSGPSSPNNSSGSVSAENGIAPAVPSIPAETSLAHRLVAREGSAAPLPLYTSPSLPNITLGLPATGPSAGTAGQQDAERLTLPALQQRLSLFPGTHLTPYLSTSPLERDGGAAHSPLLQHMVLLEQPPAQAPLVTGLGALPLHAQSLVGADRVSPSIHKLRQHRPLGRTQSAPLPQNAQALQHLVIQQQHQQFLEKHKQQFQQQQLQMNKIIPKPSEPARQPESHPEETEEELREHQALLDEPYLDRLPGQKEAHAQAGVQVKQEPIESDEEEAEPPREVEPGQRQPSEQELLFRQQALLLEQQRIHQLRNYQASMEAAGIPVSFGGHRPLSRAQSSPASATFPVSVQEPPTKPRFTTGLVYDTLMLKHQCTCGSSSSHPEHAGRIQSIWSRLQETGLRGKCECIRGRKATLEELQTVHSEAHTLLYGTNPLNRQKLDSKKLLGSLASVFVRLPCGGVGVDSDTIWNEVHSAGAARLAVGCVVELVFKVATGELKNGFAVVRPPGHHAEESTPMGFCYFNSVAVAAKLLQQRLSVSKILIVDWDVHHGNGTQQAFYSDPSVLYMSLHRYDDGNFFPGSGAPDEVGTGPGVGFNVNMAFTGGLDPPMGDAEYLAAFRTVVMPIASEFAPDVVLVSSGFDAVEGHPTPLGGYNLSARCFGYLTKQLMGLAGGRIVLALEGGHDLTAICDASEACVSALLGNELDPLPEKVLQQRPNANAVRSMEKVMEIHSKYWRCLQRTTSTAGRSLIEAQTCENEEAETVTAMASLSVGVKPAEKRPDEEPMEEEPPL
UniProt Q13547: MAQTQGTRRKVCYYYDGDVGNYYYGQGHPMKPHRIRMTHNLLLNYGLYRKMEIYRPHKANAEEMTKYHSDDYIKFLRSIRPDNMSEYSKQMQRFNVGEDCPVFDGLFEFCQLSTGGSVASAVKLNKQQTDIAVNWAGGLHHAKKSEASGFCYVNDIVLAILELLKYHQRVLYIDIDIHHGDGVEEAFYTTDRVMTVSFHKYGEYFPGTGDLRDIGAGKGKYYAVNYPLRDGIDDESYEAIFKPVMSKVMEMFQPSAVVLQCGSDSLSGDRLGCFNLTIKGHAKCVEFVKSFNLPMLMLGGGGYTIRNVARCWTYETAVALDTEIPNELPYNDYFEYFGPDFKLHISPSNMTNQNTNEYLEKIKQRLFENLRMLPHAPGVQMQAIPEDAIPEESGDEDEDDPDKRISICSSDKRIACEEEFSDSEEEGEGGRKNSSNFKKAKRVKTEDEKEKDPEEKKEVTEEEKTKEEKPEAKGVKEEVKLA
UniProt P52630: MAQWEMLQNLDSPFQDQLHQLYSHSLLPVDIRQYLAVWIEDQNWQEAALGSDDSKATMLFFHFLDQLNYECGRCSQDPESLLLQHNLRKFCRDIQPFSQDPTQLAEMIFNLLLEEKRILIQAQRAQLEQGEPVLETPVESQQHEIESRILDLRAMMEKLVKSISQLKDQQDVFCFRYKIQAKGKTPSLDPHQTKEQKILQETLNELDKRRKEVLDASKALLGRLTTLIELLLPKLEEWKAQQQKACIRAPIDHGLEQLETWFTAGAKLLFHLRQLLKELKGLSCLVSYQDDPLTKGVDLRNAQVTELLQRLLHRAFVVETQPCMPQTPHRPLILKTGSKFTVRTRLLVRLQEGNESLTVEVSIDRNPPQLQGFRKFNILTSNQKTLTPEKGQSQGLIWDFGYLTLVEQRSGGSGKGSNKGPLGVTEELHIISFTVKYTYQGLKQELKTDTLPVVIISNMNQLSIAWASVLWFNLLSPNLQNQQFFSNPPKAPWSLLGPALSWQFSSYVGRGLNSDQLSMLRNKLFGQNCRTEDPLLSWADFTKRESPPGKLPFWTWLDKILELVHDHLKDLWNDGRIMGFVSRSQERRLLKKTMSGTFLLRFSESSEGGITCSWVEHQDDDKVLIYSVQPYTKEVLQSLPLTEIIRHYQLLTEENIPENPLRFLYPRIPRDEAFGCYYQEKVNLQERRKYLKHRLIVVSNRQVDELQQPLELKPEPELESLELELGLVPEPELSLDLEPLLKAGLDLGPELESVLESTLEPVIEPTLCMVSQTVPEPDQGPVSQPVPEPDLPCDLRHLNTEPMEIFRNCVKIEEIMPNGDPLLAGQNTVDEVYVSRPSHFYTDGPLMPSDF

Legend:
[1] = biological target: TAP-tagged IRF9 (UniProt Q00978); assay: co-IP; HEK-293T cotransfected with TAP-tagged IRF9 and HA-tagged STAT1 or STAT2 or FLAG-tagged HDAC1 or HDAC4, 24 h; lysates precipitated via the streptavidin-epitope; immunoblot (Fig. 5D)
[2] = biological target: endogenous HDAC4 (human (endogenous in HEK-293T)) (UniProt P56524); assay: co-IP; endogenous levels; lysate of 1 x 10^7 HEK-293T cells incubated with mouse anti-HDAC4 or mouse IgG for 2 h, then Protein G Sepharose overnight; immunoblot for STAT2 and MEF2 (Fig. 5B)

Substance	binding [1]	binding [2]
FLAG-tagged HDAC1 (histone deacetylase 1) (from UniProt Q13547 1-482)	binds	–
endogenous STAT2 (signal transducer and activator of transcription 2) (from UniProt P52630 1-851)	–	binds
